Patent US20220242906A1
These are yes or no findings as the source states them, for the method shown.

biological target: MDM2; assay: NGS-enhanced phage display, control selection on MDM2, three replicates

Row | Binder | binding
1 | ACETGFFTGCG (C2-C10 disulphide bond (C7C constrained loop)) [EE-1] | no binding
2 | ACELGFYRLCG (C2-C10 disulphide bond (C7C constrained loop)) [EE-5] | no binding
3 | ACETGFFLRCG (C2-C10 disulphide bond (C7C constrained loop)) [EE-6] | no binding
4 | ACETGYFSQCG (C2-C10 disulphide bond (C7C constrained loop)) [EE-7] | no binding
5 | ACIHSPTSLCG (C2-C10 disulphide bond (C7C constrained loop)) [Peptide 45] | no binding
6 | ACETGFFLKCG (C2-C10 disulphide bond (C7C constrained loop)) [EE-4] | no binding

Continued, values first:

Row | binding | Binder
7 | no binding | ACETGFYKTCG (C2-C10 disulphide bond (C7C constrained loop)) [EE-8]
8 | no binding | ACELGYYNDCG (C2-C10 disulphide bond (C7C constrained loop)) [EE-3]
9 | no binding | ACEMGYFGNCG (C2-C10 disulphide bond (C7C constrained loop)) [EE-9]

biological target: eIF4A; assay: NGS-enhanced phage display, control selection on eIF4A, three replicates

Row | Binder | binding
10 | ACETGFFTGCG (C2-C10 disulphide bond (C7C constrained loop)) [EE-1] | no binding
11 | ACELGFYRLCG (C2-C10 disulphide bond (C7C constrained loop)) [EE-5] | no binding
12 | ACETGFFLRCG (C2-C10 disulphide bond (C7C constrained loop)) [EE-6] | no binding
13 | ACETGYFSQCG (C2-C10 disulphide bond (C7C constrained loop)) [EE-7] | no binding
14 | ACIHSPTSLCG (C2-C10 disulphide bond (C7C constrained loop)) [Peptide 45] | no binding
15 | ACETGFFLKCG (C2-C10 disulphide bond (C7C constrained loop)) [EE-4] | no binding

More lines, now with the values ahead:

Row | binding | Binder
16 | no binding | ACETGFYKTCG (C2-C10 disulphide bond (C7C constrained loop)) [EE-8]
17 | no binding | ACELGYYNDCG (C2-C10 disulphide bond (C7C constrained loop)) [EE-3]
18 | no binding | ACEMGYFGNCG (C2-C10 disulphide bond (C7C constrained loop)) [EE-9]
